The exact form of at least one protein or probe is not confirmed. Tags and fusion partners may be left off the protein sequences shown.
Target: T1, Int-h/218 (Lambda phage) (UniProt P03700)
T1 sequence: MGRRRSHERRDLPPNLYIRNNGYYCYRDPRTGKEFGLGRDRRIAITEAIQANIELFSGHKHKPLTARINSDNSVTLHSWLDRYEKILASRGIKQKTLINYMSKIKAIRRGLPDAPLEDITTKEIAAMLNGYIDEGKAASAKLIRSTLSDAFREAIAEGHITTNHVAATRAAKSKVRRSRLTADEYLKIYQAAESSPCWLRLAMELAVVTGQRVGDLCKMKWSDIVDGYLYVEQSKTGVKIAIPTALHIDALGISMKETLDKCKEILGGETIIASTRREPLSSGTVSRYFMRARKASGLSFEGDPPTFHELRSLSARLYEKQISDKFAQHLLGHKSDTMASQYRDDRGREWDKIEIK
Experiment: enzyme reaction in vitro
Conditions: in vitro intramolecular attH4X x attP4X recombination on supercoiled plasmid; scIHF, 200 mM KCl, TE, 37 C 2 h; purified recombinant protein

Sequence | activity on this sequence
CTTTATTTCATTAAGTTG (double strand) [attH4X] | active
TCTGTTACAGGTCACTAATACCATCTAAGTAGTTGATTCATAGTGACTGCATATGTTGTGTTTTACAGTATTATGTAGTCTGTTTTTTATGCAAAATCTAATTTAATATATTGATATTTATATCATTTTACGTTTCTCGTTCAGCTTTATTTCATTAAGTTGGCATTATAAAAAAGCATTGCTTATCAATTTGTTGCAACGAACAGGTCACTATCAGTCAAAATACAATCATTATTTGATTTC (double strand) [attP4X] | active
